Test results reported in the supplement of paper PMC8728848.
The list shows a part of the results.

Experiments:
Experiment in all cases: glycan array binding signal (z-score within array); higher = stronger binding
Conditions in all cases: glycan notation: IUPAC condensed, linker removed
[1] = target: GalNAc(b1-3)GlcNAc
Procedure, shortened: (§1)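 Glycan array data were curated from 3228 arrays in the Consortium for Functional Glycomics database and kept only where the protein sequence was available. Glycan names were converted to IUPAC-condensed notation, and columns mapping to the same glycan were averaged. The binding signal is a within-array Z-score, averaged across arrays of the same protein sequence at different concentrations or buffers and across linkers. Negative Z-scores can be read as non-binding.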

[2] = target: GalNAc(b1-4)Gal(b1-4)Glc
Procedure, shortened: as §1

[3] = target: GalNAc(b1-4)GlcNAc
Procedure, shortened: as §1

[4] = target: GalNAc(b1-4)GlcNAc(b1-2)Man
Procedure, shortened: as §1

[5] = target: GalNAc(b1-4)GlcNAc(b1-2)Man(a1-3)[GalNAc(b1-4)GlcNAc(b1-2)Man(a1-6)]Man(b1-4)GlcNAc(b1-4)GlcNAc
Procedure, shortened: as §1

[6] = target: GalNAc(b1-4)GlcNAc(b1-3)GalNAc(b1-4)GlcNAc
Procedure, shortened: as §1

[7] = target: GalNAc(b1-4)GlcNAc6S
Procedure, shortened: as §1

[8] = target: GalNAc(b1-6)GalNAc
Procedure, shortened: as §1

[9] = target: GalNAc3S(b1-4)GlcNAc
Procedure, shortened: as §1

[10] = target: GalNAc3S(b1-4)GlcNAc3S
Procedure, shortened: as §1

[11] = target: GalNAc3S(b1-4)[Fuc(a1-3)]GlcNAc
Procedure, shortened: as §1

[12] = target: GalNAc4S6S(b1-4)GlcNAc
Procedure, shortened: as §1

[13] = target: GalNAc6S(b1-4)GlcNAc
Procedure, shortened: as §1

[14] = target: Glc(a1-4)Glc
Procedure, shortened: as §1

[15] = target: Glc(a1-4)Glc(a1-4)Glc(a1-4)Glc
Procedure, shortened: as §1

[16] = target: Glc(a1-6)Glc(a1-6)Glc
Procedure, shortened: as §1

[17] = target: Glc(a1-6)Glc(a1-6)Glc(a1-6)Glc
Procedure, shortened: as §1

[18] = target: Glc(b1-4)Glc
Procedure, shortened: as §1

[19] = target: Glc(b1-6)Glc
Procedure, shortened: as §1

[20] = target: GlcA(b1-3)Gal
Procedure, shortened: as §1

[21] = target: GlcA(b1-3)GlcNAc
Procedure, shortened: as §1

[22] = target: GlcA(b1-6)Gal
Procedure, shortened: as §1

[23] = target: GlcA3S(b1-3)Gal(b1-4)GlcNAc(b1-2)Man
Procedure, shortened: as §1

[24] = target: GlcA3S(b1-3)Gal(b1-4)GlcNAc(b1-3)Gal(b1-4)Glc
Procedure, shortened: as §1

[25] = target: GlcNAc(a1-3)Gal(b1-4)GlcNAc
Procedure, shortened: as §1

[26] = target: GlcNAc(a1-4)Gal(b1-3)GlcNAc
Procedure, shortened: as §1

[27] = target: GlcNAc(a1-4)Gal(b1-4)GalNAc
Procedure, shortened: as §1

[28] = target: GlcNAc(a1-4)Gal(b1-4)GlcNAc
Procedure, shortened: as §1

[29] = target: GlcNAc(a1-4)Gal(b1-4)GlcNAc(b1-3)Gal(b1-4)Glc
Procedure, shortened: as §1

[30] = target: GlcNAc(a1-4)Gal(b1-4)GlcNAc(b1-3)Gal(b1-4)GlcNAc
Procedure, shortened: as §1

[31] = target: GlcNAc(a1-4)Gal(b1-4)GlcNAc(b1-3)Gal(b1-4)GlcNAc(b1-3)Gal(b1-4)GlcNAc
Procedure, shortened: as §1

[32] = target: GlcNAc(a1-4)Gal(b1-4)GlcNAc(b1-3)Gal(b1-4)[Fuc(a1-3)]GlcNAc(b1-3)Gal(b1-4)[Fuc(a1-3)]GlcNAc
Procedure, shortened: as §1

[33] = target: GlcNAc(a1-6)Gal(b1-4)GlcNAc
Procedure, shortened: as §1

[34] = target: GlcNAc(b1-2)Gal(b1-3)GalNAc
Procedure, shortened: as §1

[35] = target: GlcNAc(b1-2)Man(a1-3)[GlcNAc(b1-2)Man(a1-6)]Man(b1-4)GlcNAc(b1-4)GlcNAc
Procedure, shortened: as §1

[36] = target: GlcNAc(b1-2)Man(a1-3)[GlcNAc(b1-2)Man(a1-6)]Man(b1-4)GlcNAc(b1-4)[Fuc(a1-6)]GlcNAc
Procedure, shortened: as §1

[37] = target: GlcNAc(b1-2)Man(a1-3)[GlcNAc(b1-4)][GlcNAc(b1-2)Man(a1-6)]Man(b1-4)GlcNAc(b1-4)GlcNAc
Procedure, shortened: as §1

[38] = target: GlcNAc(b1-2)Man(a1-3)[GlcNAc(b1-4)][GlcNAc(b1-2)Man(a1-6)]Man(b1-4)GlcNAc(b1-4)[Fuc(a1-6)]GlcNAc
Procedure, shortened: as §1

[39] = target: GlcNAc(b1-2)[GlcNAc(b1-4)]Man(a1-3)[GlcNAc(b1-2)Man(a1-6)]Man(b1-4)GlcNAc(b1-4)GlcNAc
Procedure, shortened: as §1

[40] = target: GlcNAc(b1-2)[GlcNAc(b1-4)]Man(a1-3)[GlcNAc(b1-4)][GlcNAc(b1-2)Man(a1-6)]Man(b1-4)GlcNAc(b1-4)GlcNAc
Procedure, shortened: as §1

[41] = target: GlcNAc(b1-2)[GlcNAc(b1-4)]Man(a1-3)[GlcNAc(b1-4)][GlcNAc(b1-2)[GlcNAc(b1-6)]Man(a1-6)]Man(b1-4)GlcNAc(b1-4)GlcNAc
Procedure, shortened: as §1

[42] = target: GlcNAc(b1-2)[GlcNAc(b1-4)]Man(a1-3)[GlcNAc(b1-4)][GlcNAc(b1-2)[GlcNAc(b1-6)]Man(a1-6)]Man(b1-4)GlcNAc(b1-4)[Fuc(a1-6)]GlcNAc
Procedure, shortened: as §1

[43] = target: GlcNAc(b1-2)[GlcNAc(b1-6)]Man(a1-6)[GlcNAc(b1-2)Man(a1-3)]Man(b1-4)GlcNAc(b1-4)GlcNAc
Procedure, shortened: as §1

[44] = target: GlcNAc(b1-2)[GlcNAc(b1-6)]Man(a1-6)[GlcNAc(b1-2)Man(a1-3)]Man(b1-4)GlcNAc(b1-4)[Fuc(a1-6)]GlcNAc
Procedure, shortened: as §1

[45] = target: GlcNAc(b1-2)[GlcNAc(b1-6)]Man(a1-6)[GlcNAc(b1-2)Man(a1-3)][GlcNAc(b1-4)]Man(b1-4)GlcNAc(b1-4)GlcNAc
Procedure, shortened: as §1

B1: CRT-1 (Homo sapiens), P27797 (protein)
chain: MLLSVPLLLGLLGLAVAEPAVYFKEQFLDGDGWTSRWIESKHKSDFGKFVLSSGKFYGDEEKDKGLQTSQDARFYALSASFEPFSNKGQTLVVQFTVKHEQNIDCGGGYVKLFPNSLDQTDMHGDSEYNIMFGPDICGPGTKKVHVIFNYKGKNVLINKDIRCKDDEFTHLYTLIVRPDNTYEVKIDNSQVESGSLEDDWDFLPPKKIKDPDASKPEDWDERAKIDDPTDSKPEDWDKPEHIPDPDAKKPEDWDEEMDGEWEPPVIQNPEYKGEWKPRQIDNPDYKGTWIHPEIDNPEYSPDPSIYAYDNFGVLGLDLWQVKSGTIFDNFLITNDEAYAEEFGNETWGVTKAAEKQMKDKQDEEQRLKEEEEDKKRKEEEEAEDKEDDEDKDEDEEDEEDKEEDEEEDVPGQAKDEL
[1]
  glycan array binding signal (z-score): 0.853
[2]
  glycan array binding signal (z-score): 0.378
[3]
  glycan array binding signal (z-score): 0.222
[4]
  glycan array binding signal (z-score): -0.75
[5]
  glycan array binding signal (z-score): 0.7
[6]
  glycan array binding signal (z-score): 0.133
[7]
  glycan array binding signal (z-score): -0.519
[8]
  glycan array binding signal (z-score): 0.544
[9]
  glycan array binding signal (z-score): -0.071
[10]
  glycan array binding signal (z-score): 1.44
[11]
  glycan array binding signal (z-score): -1.01
[12]
  glycan array binding signal (z-score): 0.262
[13]
  glycan array binding signal (z-score): -0.369
[14]
  glycan array binding signal (z-score): 0.327
[15]
  glycan array binding signal (z-score): -0.183
[16]
  glycan array binding signal (z-score): -0.059
[17]
  glycan array binding signal (z-score): 0.137
[18]
  glycan array binding signal (z-score): 0.207
[19]
  glycan array binding signal (z-score): -0.071
[20]
  glycan array binding signal (z-score): -0.203
[21]
  glycan array binding signal (z-score): 0.602
[22]
  glycan array binding signal (z-score): -0.174
[23]
  glycan array binding signal (z-score): -0.719
[24]
  glycan array binding signal (z-score): -0.15
[25]
  glycan array binding signal (z-score): -0.694
[26]
  glycan array binding signal (z-score): 0.096
[27]
  glycan array binding signal (z-score): -0.307
[28]
  glycan array binding signal (z-score): -0.256
[29]
  glycan array binding signal (z-score): -0.468
[30]
  glycan array binding signal (z-score): 0.476
[31]
  glycan array binding signal (z-score): -0.161
[32]
  glycan array binding signal (z-score): 1.95
[33]
  glycan array binding signal (z-score): -0.513
[34]
  glycan array binding signal (z-score): -0.419
[35]
  glycan array binding signal (z-score): 0.112
[36]
  glycan array binding signal (z-score): 0.544
[37]
  glycan array binding signal (z-score): -0.643
[38]
  glycan array binding signal (z-score): -0.101
[39]
  glycan array binding signal (z-score): -0.687
[40]
  glycan array binding signal (z-score): -0.721
[41]
  glycan array binding signal (z-score): -0.611
[42]
  glycan array binding signal (z-score): -0.612
[43]
  glycan array binding signal (z-score): 0.099
[44]
  glycan array binding signal (z-score): 0.713
[45]
  glycan array binding signal (z-score): 0.034
